Results are given as percent effect.
The controls that fix the scale are not given in the record; negative values are as filed.
The compounds are a random part of those screened.

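Whole-parasite assay of Trypanosoma brucei over 72 hours; the read-out is not stated. Compounds at 30 µM. Direction is inferred from retests: higher values go with stronger inhibition. Values scatter widely below zero; nearly all retest evidence comes from the higher of the two concentrations used. About 64,000 compounds were tested under these conditions; 1.5% (about 940) showed 50% or more at least once.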

Compound: Cc1nc(-c2ccsc2)ccc1C(=O)NCCC1CCCO1 (stereo not given)
Percent Effect: 8.217

Compound: COc1ccc2c(c1)C(=O)N(C)C1(CCN(CC=C(C)C)CC1)N2
Percent Effect: -25.01

Compound: Cc1noc(C)c1CN1CC2(CCN(C(=O)c3cccn3C)C2)CC1=O (stereo not given)
Percent Effect: -10.92

Compound: CCc1cnc(CN(C(C)=O)C2CCN(CCS(C)(=O)=O)C2)o1 (stereo not given)
Percent Effect: -16.69

Compound: CN(CCC1CCOCC1)[C@@H]1c2ccccc2C2(CCNCC2)[C@H]1O
Percent Effect: 20.53

Compound: CCCOc1ccc(Cl)cc1C(=O)N1CCC(n2cncn2)CC1
Percent Effect: -1.238

Compound: O=C(CCc1ccc2c(c1)OCO2)Nc1cccnc1-n1cncn1
Percent Effect: -19.35

Compound: COc1ccc(Cc2nnc3n2N=C(C(C)(C)C)CS3)cc1
Percent Effect: -20.7

Compound: CC(=O)N1CCN(C(=O)CCOc2ccc(C(C)C)cc2)CC1
Percent Effect: -28.79

Compound: CC(=O)Nc1nc(C2CCN(C(=O)c3cncs3)CC2)cs1
Percent Effect: 2.445

Compound: Cn1ccnc1CCNS(=O)(=O)c1ccc(Br)cc1
Percent Effect: -42.13

Compound: Cc1cc2c(=O)n3c(nc2s1)CCN(C(=O)c1nn(C)cc1Cl)CC3
Percent Effect: -11.28

Compound: CN1Cc2ccccc2CC2(CCN(Cc3nccn3C)CC2)C1=O
Percent Effect: -40.26

Compound: [H][C@@]12CCN(C(=O)C3CCSCC3)C[C@]1(COCC1CC1)CCO2
Percent Effect: -71.97

Compound: O=C(O)C(F)(F)F.[H][C@@]12CN(Cc3ccco3)CCO[C@]1([H])CN(S(=O)(=O)CC)C2
Percent Effect: -249.9

Compound: COCc1cc(N(C)CCc2c(C)n[nH]c2C)ncn1
Percent Effect: -3.466

Compound: Cc1ccc(CNS(=O)(=O)CCCC#N)cc1F
Percent Effect: -2.24

Compound: Cc1cc(CC(=O)NCC(O)COc2ccc(F)c(F)c2)no1 (stereo not given)
Percent Effect: -44

Compound: O=C(CC1CCCCC1)N1CCN(C(=O)NCc2ccccn2)CC1
Percent Effect: -17.2

Compound: Cc1nn(C)c2cnn(CC(=O)NCCc3ccccc3)c12
Percent Effect: 38.29

Compound: [H][C@]12CCN(C(=O)NC)CC[C@@]1([H])S(=O)(=O)N(Cc1ccccc1)C2
Percent Effect: -37.58

Compound: O=C(CSc1ccc(Br)cc1)NS(=O)(=O)c1ccc2c(c1)OCCO2
Percent Effect: -1.577

Compound: COc1cc(N2CCc3ncnc(-c4ccoc4)c3CC2)ncn1
Percent Effect: -16.36

Compound: CCn1c(=O)nc2n1C(=O)N(c1cccc(Cl)c1)C2
Percent Effect: 38.79

Compound: CNC(=O)C1CCCCN1C(=O)CCn1cnc2sccc2c1=O (stereo not given)
Percent Effect: -19.04

Compound: COCC(O)CNc1ccc(C#N)cc1C(F)(F)F (stereo not given)
Percent Effect: -35.66

Compound: CC(C)c1nc(CCN(C)c2nccc(N3CCCC(O)C3)n2)no1 (stereo not given)
Percent Effect: 3.693

Compound: O=C(O)C(F)(F)F.O=C(O)C(F)(F)F.O=S(=O)(C1CC1)N1CCC2(CC1)CN(Cc1ccccn1)CCO2
Percent Effect: -42.81

Compound: Cc1nnsc1CN(C)Cc1ccc(C(=O)Nc2sccc2C#N)cc1
Percent Effect: -0.2666

Compound: COCCCNC(=O)CCn1ncc2c(Cl)cccc21
Percent Effect: -21.64

For reference, 3 entries once more:

Result for CCn1c(=O)nc2n1C(=O)N(c1cccc(Cl)c1)C2 was 38.79%.
Result for O=C(O)C(F)(F)F.[H][C@@]12CN(Cc3ccco3)CCO[C@]1([H])CN(S(=O)(=O)CC)C2 was -249.9%.
Result for Cc1cc2c(=O)n3c(nc2s1)CCN(C(=O)c1nn(C)cc1Cl)CC3 was -11.28%.

The values are deposited in ChEMBL (CHEMBL3988442, “University of Dundee, Small-Polar-MMV Screening Library” (2021)).